The text below walks through data of US20170129926A1 (ABCLON, published 2017).

The chains behind the UniProt entries cited, without tags or fusion partners. Residues count along the entry.
UniProt P05231, 30-212 limits assumed: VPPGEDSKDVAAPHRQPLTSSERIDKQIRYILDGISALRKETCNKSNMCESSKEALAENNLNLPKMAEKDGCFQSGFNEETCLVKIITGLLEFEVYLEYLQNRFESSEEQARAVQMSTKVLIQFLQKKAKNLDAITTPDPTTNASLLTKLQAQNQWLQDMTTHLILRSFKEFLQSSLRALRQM

Where two headings read alike, the source gives them in different places.

In assay [1] the target is T1, human IL-6 (human, UniProt P05231 30-212).
T1 construct: recombinant, bought (Peprotech 200-06; R&D Systems 206-IL/CF); biotinylated in the ELISAs; also called hIL-6; rhIL-6
Description: ELISA, captured Z-ABD, biotin-hIL-6 titrated. Background: In an ELISA, binding on a coated surface is turned into a signal by an enzyme label.

The target of assay [2] is T1, human IL-6. The experiment in a line: ELISA, captured Z-ABD, biotin-hIL-6 titrated. This is another data set of the same source.

B1: Z11907 (designed binder)
chain: AQHDEALEVDAKYAKEEQHAWLEIHKLPNLTVEQIAAFISKLFDDPSQSSELLSEAKKLNDSQAPKVDYVLAEAKVLANRELDKYGVSDYYKNLINNAKTVEGVKALIDEILAALPYVPG
notes: domain: GA3; periplasmic ABD fusion
Usually EC50 stands for the concentration needed to bring the measured effect to its halfway point. Read a high EC50 as lower potency in that assay. In the assay with human IL-6 [1], B1 had an EC50 of 360 pM.

B2: Z14525 (designed binder)
chain: AQHDEALEVDAKYAKEEKKAWTEIHLLPNLTIEQMAAFITKLFDDPSQSSELLSEAKKLNDSQAPKVDYVLAEAKVLANRELDKYGVSDYYKNLINNAKTVEGVKALIDEILAALPYVPG
notes: as for B1
B2: the EC50 with human IL-6 [2] was found to be 250 pM.

B3: Z14645 (designed binder)
chain: AQHDEALEVDAKYAKEEKDAWYEIHLLPNLTVEQIAAFITKLFDDPSQSSELLSEAKKLNDSQAPKVDYVLAEAKVLANRELDKYGVSDYYKNLINNAKTVEGVKALIDEILAALPYVPG
notes: as for B1
With B3, in the assay with human IL-6 [2], it took 250 pM to reach a half-maximal effect (EC50).

B4: Z11922 (designed binder)
chain: AQHDEALEVDAKYAKEERHAWHEIHILPNLTANQIAAFISKLFDDPSQSSELLSEAKKLNDSQAPKVDYVLAEAKVLANRELDKYGVSDYYKNLINNAKTVEGVKALIDEILAALPYVPG
notes: as for B1
Regarding B4, in the assay with human IL-6 [1], the EC50 stood at 270 pM.

B5: Z14630 (designed binder)
chain: AQHDEALEVDAKYAKEEKFAWWEIHKLPNLTVDQVAAFITKLFDDPSQSSELLSEAKKLNDSQAPKVDYVLAEAKVLANRELDKYGVSDYYKNLINNAKTVEGVKALIDEILAALPYVPG
notes: as for B1
In the assay with human IL-6 [2], B5 had an EC50 of 250 pM.

B6: Z11918 (designed binder)
chain: AQHDEALEVDAKYAKEERDAWFEIHTLPNLTVTQMAAFIIKLFDDPSQSSELLSEAKKLNDSQAPKVDYVLAEAKVLANRELDKYGVSDYYKNLINNAKTVEGVKALIDEILAALPYVPG
notes: as for B1
In the case of B6, the EC50 with human IL-6 [1] was 320 pM.

B7: Z14547 (designed binder)
chain: AQHDEALEVDAKYAKEERHAWTEIHLLPNLTIDQMAAFITKLFDDPSQSSELLSEAKKLNDSQAPKVDYVLAEAKVLANRELDKYGVSDYYKNLINNAKTVEGVKALIDEILAALPYVPG
notes: as for B1
In the assay with human IL-6 [2], B7 gave an EC50 of 250 pM.

B8: Z14662 (designed binder)
chain: AQHDEALEVDAKYAKEEKAAWFEIHALPNLTVEQVAAFITKLFDDPSQSSELLSEAKKLNDSQAPKVDYVLAEAKVLANRELDKYGVSDYYKNLINNAKTVEGVKALIDEILAALPYVPG
notes: as for B1
In the assay with human IL-6 [2], B8 yielded an EC50 of 270 pM.

B9: Z14706 (designed binder)
chain: AQHDEALEVDAKYAKEEAFAWKEIHLLPNLTIDQMAAFITKLFDDPSQSSELLSEAKKLNDSQAPKVDYVLAEAKVLANRELDKYGVSDYYKNLINNAKTVEGVKALIDEILAALPYVPG
notes: as for B1
In the assay with human IL-6 [2], B9 came in with an EC50 of 230 pM.

B10: Z14596 (designed binder)
chain: AQHDEALEVDAKYAKEEYEAWHEIHILPNLTVDQMAAFITKLFDDPSQSSELLSEAKKLNDSQAPKVDYVLAEAKVLANRELDKYGVSDYYKNLINNAKTVEGVKALIDEILAALPYVPG
notes: as for B1
For the molecule B10, it took 240 pM to reach a half-maximal effect with human IL-6 [2] (EC50).

B11: Z14524 (designed binder)
chain: AQHDEALEVDAKYAKEEKHAWREIHLLPNLTVEQMAAFITKLFDDPSQSSELLSEAKKLNDSQAPKVDYVLAEAKVLANRELDKYGVSDYYKNLINNAKTVEGVKALIDEILAALPYVPG
notes: as for B1
B11 displayed an EC50 with human IL-6 [2] of 270 pM.

B12: Z14620 (designed binder)
chain: AQHDEALEVDAKYAKEEYEAWVEIHKLPNLTIDQMAAFITKLFDDPSQSSELLSEAKKLNDSQAPKVDYVLAEAKVLANRELDKYGVSDYYKNLINNAKTVEGVKALIDEILAALPYVPG
notes: as for B1
Turning to B12, it took 310 pM to reach a half-maximal effect in the assay with human IL-6 [2] (EC50).

B13: Z11923 (designed binder)
chain: AQHDEALEVDAKYAKEEREAWFEIHLLPNLTISQMAAFISKLFDDPSQSSELLSEAKKLNDSQAPKVDYVLAEAKVLANRELDKYGVSDYYKNLINNAKTVEGVKALIDEILAALPYVPG
notes: as for B1
As to B13, in the assay with human IL-6 [1], a half-maximal effect (EC50) was put at 210 pM.

B14: Z14634 (designed binder)
chain: AQHDEALEVDAKYAKEEYHAWYEIHLLPNLTIDQMAAFITKLFDDPSQSSELLSEAKKLNDSQAPKVDYVLAEAKVLANRELDKYGVSDYYKNLINNAKTVEGVKALIDEILAALPYVPG
notes: as for B1
In the assay with human IL-6 [2], B14 displayed an EC50 of 230 pM.

B15: Z14710 (designed binder)
chain: AQHDEALEVDAKYAKEEYEAWYEIHLLPNLTVSQIAAFITKLFDDPSQSSELLSEAKKLNDSQAPKVDYVLAEAKVLANRELDKYGVSDYYKNLINNAKTVEGVKALIDEILAALPYVPG
notes: as for B1
On to B15, for which the response with human IL-6 [2] was half-maximal at 260 pM (EC50).

B16: Z14673 (designed binder)
chain: AQHDEALEVDAKYAKEEYHAWMEIHLLPNLTVSQMAAFITKLFDDPSQSSELLSEAKKLNDSQAPKVDYVLAEAKVLANRELDKYGVSDYYKNLINNAKTVEGVKALIDEILAALPYVPG
notes: as for B1
Turning to B16, the EC50 in the assay with human IL-6 [2] was 230 pM.

B17: Z14556 (designed binder)
chain: AQHDEALEVDAKYAKEEAQAWWEIHALPNLTVDQVAAFITKLFDDPSQSSELLSEAKKLNDSQAPKVDYVLAEAKVLANRELDKYGVSDYYKNLINNAKTVEGVKALIDEILAALPYVPG
notes: as for B1
B17: the EC50 in the assay with human IL-6 [2] is 280 pM.

B18: Z11912 (designed binder)
chain: AQHDEALEVDAKYAKEEAAAWFEIHTLPNLTVDQMAAFISKLFDDPSQSSELLSEAKKLNDSQAPKVDYVLAEAKVLANRELDKYGVSDYYKNLINNAKTVEGVKALIDEILAALPYVPG
notes: as for B1
In turn, B18 came in with an EC50 in the assay with human IL-6 [1] of 180 pM.

B19: Z14551 (designed binder)
chain: AQHDEALEVDAKYAKEEKQAWYEIHNLPNLTVDQMAAFISKLFDDPSQSSELLSEAKKLNDSQAPKVDYVLAEAKVLANRELDKYGVSDYYKNLINNAKTVEGVKALIDEILAALPYVPG
notes: as for B1
For the molecule B19, a half-maximal response with human IL-6 [2] (EC50) required 260 pM.

B20: Z11939 (designed binder)
chain: AQHDEALEVDAKYAKEEQRAWREIHLLPNLTIEQMSAFISKLFDDPSQSSELLSEAKKLNDSQAPKVDYVLAEAKVLANRELDKYGVSDYYKNLINNAKTVEGVKALIDEILAALPYVPG
notes: as for B1
In turn, B20 registered an EC50 with human IL-6 [1] of 210 pM.

B21: Z14538 (designed binder)
chain: AQHDEALEVDAKYAKEERFAWTEIHLLPNLTVDQMAAFITKLFDDPSQSSELLSEAKKLNDSQAPKVDYVLAEAKVLANRELDKYGVSDYYKNLINNAKTVEGVKALIDEILAALPYVPG
notes: as for B1
Turning to B21, the EC50 with human IL-6 [2] was found to be 320 pM.

B22: Z11933 (designed binder)
chain: AQHDEALEVDAKYAKEEAHAWYEIHILPNLTVSQMAAFISKLFDDPSQSSELLSEAKKLNDSQAPKVDYVLAEAKVLANRELDKYGVSDYYKNLINNAKTVEGVKALIDEILAALPYVPG
notes: as for B1
On to B22, for which, in the assay with human IL-6 [1], the midpoint of the response, the EC50, lay at 160 pM.

B23: Z14609 (designed binder)
chain: AQHDEALEVDAKYAKEERMAWMEIHLLPNLTVEQMAAFISKLFDDPSQSSELLSEAKKLNDSQAPKVDYVLAEAKVLANRELDKYGVSDYYKNLINNAKTVEGVKALIDEILAALPYVPG
notes: as for B1
In the assay with human IL-6 [2], B23 registered an EC50 of 300 pM.

B24: Z11929 (designed binder)
chain: AQHDEALEVDAKYAKEEAEAWWEIHLLPNLTVQQIAAFISKLFDDPSQSSELLSEAKKLNDSQAPKVDYVLAEAKVLANRELDKYGVSDYYKNLINNAKTVEGVKALIDEILAALPYVPG
notes: as for B1
In turn, B24 showed an EC50 with human IL-6 [1] of 260 pM.

B25: Z11937 (designed binder)
chain: AQHDEALEVDAKYAKEERDAWYEIHLLPNLTIDQIAAFISKLFDDPSQSSELLSEAKKLNDSQAPKVDYVLAEAKVLANRELDKYGVSDYYKNLINNAKTVEGVKALIDEILAALPYVPG
notes: as for B1
In the assay with human IL-6 [1], B25 gave an EC50 of 300 pM.

B26: Z14651 (designed binder)
chain: AQHDEALEVDAKYAKEEKHAWHEIHILPNLTVEQMAAFITKLFDDPSQSSELLSEAKKLNDSQAPKVDYVLAEAKVLANRELDKYGVSDYYKNLINNAKTVEGVKALIDEILAALPYVPG
notes: as for B1
In the assay with human IL-6 [2], B26 gave an EC50 of 240 pM.

B27: Z14700 (designed binder)
chain: AQHDEALEVDAKYAKEERHAWFEIHKLPNLTVDQMAAFITKLFDDPSQSSELLSEAKKLNDSQAPKVDYVLAEAKVLANRELDKYGVSDYYKNLINNAKTVEGVKALIDEILAALPYVPG
notes: as for B1
In the assay with human IL-6 [2], B27 yielded an EC50 of 240 pM.

B28: Z14614 (designed binder)
chain: AQHDEALEVDAKYAKEEYDAWVEIHALPNLTVEQVAAFITKLFDDPSQSSELLSEAKKLNDSQAPKVDYVLAEAKVLANRELDKYGVSDYYKNLINNAKTVEGVKALIDEILAALPYVPG
notes: as for B1
As to B28, the EC50 with human IL-6 [2] is 380 pM.

B29: Z14559 (designed binder)
chain: AQHDEALEVDAKYAKEEYEAWYEIHILPNLTVDQIAAFITKLFDDPSQSSELLSEAKKLNDSQAPKVDYVLAEAKVLANRELDKYGVSDYYKNLINNAKTVEGVKALIDEILAALPYVPG
notes: as for B1
The molecule B29 yielded an EC50 with human IL-6 [2] of 230 pM.

B30: Z14712 (designed binder)
chain: AQHDEALEVDAKYAKEEYLAWNEIHKLPNLTVDQMAAFITKLFDDPSQSSELLSEAKKLNDSQAPKVDYVLAEAKVLANRELDKYGVSDYYKNLINNAKTVEGVKALIDEILAALPYVPG
notes: as for B1
B30 had an EC50 in the assay with human IL-6 [2] of 260 pM.

B31: Z14550 (designed binder)
chain: AQHDEALEVDAKYAKEERAAWFEIHALPNLTVEQVAAFITKLFDDPSQSSELLSEAKKLNDSQAPKVDYVLAEAKVLANRELDKYGVSDYYKNLINNAKTVEGVKALIDEILAALPYVPG
notes: as for B1
As to B31, the EC50 with human IL-6 [2] was 270 pM.

B32: Z14521 (designed binder)
chain: AQHDEALEVDAKYAKEEYDAWMEIHLLPNLTVDQMAAFITKLFDDPSQSSELLSEAKKLNDSQAPKVDYVLAEAKVLANRELDKYGVSDYYKNLINNAKTVEGVKALIDEILAALPYVPG
notes: as for B1
Turning to B32, the EC50 with human IL-6 [2] is 230 pM.
